Measurements: PubChem BioAssay AID504834 (National Center for Advancing Translational Sciences (NCATS), 2011)
About 22,000 (6.9%) of roughly 320,000 compounds were called active. Inconclusive means that the source gave no clear call. Such entries were picked first, then a sample of the others. Calls come from the whole dose curve; as a rule, active = well fitted inhibition curve with a large enough effect; inconclusive = small, poorly fitted or top-dose-only effect, or another doubt; inactive = no such curve, though single readings can be large or run the other way. Potencies of inconclusive entries are doubtful fits and often do not repeat.

test: Primary qHTS for delayed death inhibitors of the malarial parasite plastid, 96 hour incubation; details: P. falciparum luciferase reporter growth; series mostly up to 28.7 µM; activity change, negative = inhibition: at the top concentration
Method in brief: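 Parasite growth measured via integrated firefly luciferase reporter in P. falciparum. Infected erythrocytes at 2% hematocrit, 0.05% parasitemia final were treated 96 hours at 37 C under 5% CO2, and luminescence was read.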
% is set by controls: 0 for no effect and ±100 for the full control effect; potency is the fitted concentration of half-maximal effect.

Row | Compound | activity change, negative = inhibition | Potency
1 | Cn1nc(C(=O)NCc2ccccc2Cl)c2c1-c1ccccc1S(=O)(=O)C2 | inactive: -16.6% | 
2 | Cc1cc2cc(CNC(=O)c3ccc(Br)o3)ccc2n1C |  | active: 9.28 µM
3 | CCC(C)[C@@H](CN(N=O)[C@@H](Cc1ccccc1)CN(C)N=O)N(CCc1ccccc1)N=O (some centres undefined) |  | inconclusive: 18.5 µM [inhibitor, single point]
4 | COc1ccc(OCC(O)CN2CCN(CC(O)COc3ccc(OC)cc3)CC2)cc1 (centres undefined) |  | inconclusive: 18.5 µM [inhibitor, single point]
5 | COc1ccc(-n2c(COc3cccc(C)c3)n[nH]c2=S)cc1 | inactive: -12.9% | 
6 | COc1ccc(N2CCN(C(=O)NCc3ccc(OC)c(Cl)c3)CC2)cc1 | inactive: 15.2% | 
7 | COc1cc2c(cc1OC)/C(=C/C(=O)c1ccc(OC)c([N+](=O)[O-])c1)NCC2 |  | inconclusive: 10.4 µM [inhibitor, partial curve]
8 | COc1ccc(Cc2nnc(NC(=O)c3cccs3)s2)cc1OC | inactive: 1.16% | 
9 | O=C(N/N=C\c1cccc(Cl)c1)c1ccc(Cn2cccn2)o1 | inactive: -12.1% | 
10 | Cc1cc(-n2c(C)cc(C(=O)CN3C(=O)NC4(CCCCCC4)C3=O)c2C)no1 | inactive: -14.9% | 
11 | Nc1cc(OC(=O)c2c(F)cccc2Cl)nn1S(=O)(=O)c1ccccc1 |  | active: 10.4 µM
12 | CC1(C)CC(=O)C2=C(C1)OC(N)=C(C#N)C21CCN(Cc2ccccc2)CC1 |  | inconclusive: 14.7 µM [inhibitor, partial curve, poor fit]
13 | N=c1c(C(=O)NCc2ccc3c(c2)OCO3)cc2c(=O)n3ccccc3nc2n1CC1CCCO1 (centres undefined) |  | inconclusive: 2.33 µM [inhibitor, partial curve, poor fit]
14 | CC(C)CCNC(=O)CN(CCCN1CCOCC1)C(=O)Cn1nnc(-c2ccc(F)cc2)n1 |  | inconclusive: 16.5 µM [inhibitor, single point]
15 | Clc1nnc2ccc(-c3ccccc3)nn12 |  | inconclusive: 11.7 µM [inhibitor, single point]
16 | Cc1cccc(COCC(Cc2ccccc2)N2CCN(C(=O)c3ccc(Cl)c(Cl)c3)CCC2=O)c1 (centres undefined) |  | inconclusive: 10.4 µM [inhibitor, partial curve, poor fit]
17 | CCOc1ccc(CCNC(=O)COC(=O)c2cccc(S(=O)(=O)N3CCOCC3)c2)cc1OCC |  | inconclusive: 10.4 µM [inhibitor, partial curve, poor fit]
18 | CCOC(=O)C1=C(C)NC(C)=C(C(=O)OC)C1c1cccc([N+](=O)[O-])c1 (centres undefined) |  | inconclusive: 10.4 µM [inhibitor, partial curve]
19 | Cc1ccc(C(=O)/C=C/N(C)C)o1 | inactive: -2.38% | 

Random excerpt: 2 entries already listed.
Row | Compound | activity change, negative = inhibition | Potency
13 | N=c1c(C(=O)NCc2ccc3c(c2)OCO3)cc2c(=O)n3ccccc3nc2n1CC1CCCO1 (centres undefined) |  | inconclusive: 2.33 µM [inhibitor, partial curve, poor fit]
4 | COc1ccc(OCC(O)CN2CCN(CC(O)COc3ccc(OC)cc3)CC2)cc1 (centres undefined) |  | inconclusive: 18.5 µM [inhibitor, single point]
